In PubChem BioAssay AID2284334 (EPA ToxCast) one finds AC50 data, which are given here for one molecule.

Amino acid sequences for entries named in this document (tags omitted). A change or cut given only in a name is not applied to a line headed by its entry.
UniProt Q07869: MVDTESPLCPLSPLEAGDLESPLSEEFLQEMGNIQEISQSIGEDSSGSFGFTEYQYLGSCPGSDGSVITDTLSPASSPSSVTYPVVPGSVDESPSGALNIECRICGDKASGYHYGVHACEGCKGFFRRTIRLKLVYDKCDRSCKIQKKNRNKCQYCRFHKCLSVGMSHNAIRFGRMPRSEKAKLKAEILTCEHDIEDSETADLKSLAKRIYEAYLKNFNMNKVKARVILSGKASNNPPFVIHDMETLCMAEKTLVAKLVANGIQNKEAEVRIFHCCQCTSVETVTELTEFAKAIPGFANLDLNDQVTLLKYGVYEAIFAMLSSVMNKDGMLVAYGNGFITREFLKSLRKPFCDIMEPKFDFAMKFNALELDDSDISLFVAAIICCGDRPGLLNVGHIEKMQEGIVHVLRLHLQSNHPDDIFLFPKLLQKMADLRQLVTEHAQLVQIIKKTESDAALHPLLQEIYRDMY

The target of this assay is human Peroxisome Proliferator-activated Receptor alpha (PPARa), PPARA (gene 5465) (UniProt Q07869). Description: ATG_hPPARa_EcoTox2: Attagene TRANS-FACTORIAL EcoTox-2 HepG2 Assay for human Peroxisome Proliferator-activated Receptor alpha (PPARa). How it is done:
ATG_EcoTox2 is a cell-based, multiplexed assay created by modifying the existing Attagene TRANS-FACTORIAL system to include a panel of nuclear receptors from some or all the following species: human (Homo sapiens), african clawed frog (Xenopus laevis), rainbow trout (Oncorhynchus mykiss), japanese medaka (Oryzias latipes), and zebrafish (Danio rerio). The ECOTOX2-FACTORIAL format uses HepG2, a human liver cell line, with measurements taken at 24 hours after chemical dosing in a 24-well plate. ATG_hPPARa_EcoTox2 is one of 29 assay components calculated in the ATG_EcoTox2 assay. It is designed to make measurements of mRNA induction, a form of inducible reporter, as detected with fluorescence intensity signals by Reverse transcription polymerase chain reaction (RT-PCR) and Capillary electrophoresis technology.The assay endpoint ATG_hPPARa_EcoTox2 was analyzed in the positive analysis fitting direction relative to DMSO as the negative control and baseline of activity. Using a type of inducible reporter, measures of mRNA for gain-of-signal activity can be used to understand the reporter gene at the transcription factor-level as they relate to the gene PPARa. Furthermore, this assay endpoint can be referred to as a primary readout, because this assay has produced multiple assay endpoints where this one serves a reporter gene function. […]

The structures appear in SMILES notation. Only a part is listed here, and it is no random draw. Inconclusive results are not listed. The source made the active and inactive calls. How the source made its calls: active means hit-call score of the fitted dose curve at least 0.9, where 1 is the maximum; inconclusive means response in the unintended direction; inactive means score below 0.9.

Usually AC50 stands for the midpoint of the concentration-response curve, whichever way the signal moves. `Cc1ccc(C)c(OCCCC(C)(C)C(=O)O)c1`: the AC50 is active: 31.1 µM.
